{
  "source": "patent US7375124B2",
  "about": "“Use of α-phenylthiocarboxylic and α-phenyloxycarboxylic acids with serum-glucose-lowering and serum-lipid-lowering activity” (Sigma-Tau Industrie Farmaceutiche Riunite S.p.A., priority 2002, dated 2008)",
  "tested_on": "C57BL/KsJ db/db mouse",
  "assay": "Antidiabetic and serum-lipid-lowering activity in the db/db mouse (Experiments I and II)",
  "details": "Experiment I",
  "key": {"[1]": {"details": "after 25 days' treatment, postabsorption, 7.5 hours after last treatment"}, "[2]": {"details": "after 25 days' treatment, postabsorption, 7.5 hours after last treatment, mean ± S.E."}},
  "note": "At least one structure is not confirmed: it was looked up by name or label, or the drawing left a doubt.",
  "data": [
    {"smiles": "CN(CCOc1ccc(CC2SC(=O)NC2=O)cc1)c1ccccn1", "note": "(stereo not shown) [Rosiglitazone, rosiglitazone, reference compound]", "values": [
      {"measurement": "Variation % (glucose) vs control", "setting": "after 12 days' treatment, postabsorption, 8 hours after last treatment", "result": "−24", "unit": "%"},
      {"measurement": "Glucose (plasma)", "setting": "after 25 days' treatment, postabsorption (fasting 9 a.m. to 4.30 p.m.), 7.5 hours after last treatment, mean ± S.E.", "result": "296 ± 39▪ mg/dl"},
      {"measurement": "Variation % (fructosamine) vs control", "setting": "[1]", "result": "−35", "unit": "%"},
      {"measurement": "Variation % (plasma glucose) vs control", "setting": "[1]", "result": "−35", "unit": "%"},
      {"measurement": "Fructosamine (plasma)", "setting": "[2]", "result": "0.52 ± 0.12", "unit": "mM"},
      {"measurement": "HDL-choles. (plasma)", "setting": "[2]", "result": "65.4 ± 3.6[…] mg/dl"},
      {"measurement": "Triglycerides (plasma)", "setting": "[2]", "result": "43.7 ± 4.1", "unit": "mg/dL"}
    ]}
  ]
}
